Results published in article PMC5102403.

By UniProt entry, the sequences of proteins in these tests, tags left out.
UniProt Q61457: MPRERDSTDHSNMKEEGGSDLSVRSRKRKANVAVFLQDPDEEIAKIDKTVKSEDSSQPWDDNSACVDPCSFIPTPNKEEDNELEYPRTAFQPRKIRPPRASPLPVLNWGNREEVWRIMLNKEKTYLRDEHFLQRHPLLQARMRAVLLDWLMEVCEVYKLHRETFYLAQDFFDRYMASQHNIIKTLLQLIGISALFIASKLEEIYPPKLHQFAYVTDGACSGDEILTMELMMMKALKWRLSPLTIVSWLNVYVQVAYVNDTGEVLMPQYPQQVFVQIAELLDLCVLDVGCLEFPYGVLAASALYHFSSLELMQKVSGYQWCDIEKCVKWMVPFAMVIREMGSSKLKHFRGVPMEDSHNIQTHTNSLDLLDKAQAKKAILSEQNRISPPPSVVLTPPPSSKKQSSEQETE

Target: tagged (Flag-HA) cyclin E1 of knock-in mice, end of the tag not told for the experiment or an about 1:1 mixture of the N- and C-terminally tagged forms (mouse) (UniProt Q61457)
Experiment: affinity purification with mass spectrometry; sequential immunoaffinity purification (anti-Flag M2 agarose, Flag peptide elution, then anti-HA 12CA5 beads) from embryonic brains, adult brains, spleens, thymuses and testes, about 1:1 mixture of organs of N- and C-tagged cyclin E1 knock-in mice; LC-MS/MS, 6-10 runs per organ; mock purifications from wild-type mice subtracted

| Binder | binding |
| --- | --- |
| Mcm3, mouse (protein, UniProt P25206 1-812) MAGTVVLDDVELREAQRDYLDFLDDEEDQGIYQNKVRELISDNQYRLIVSVNDLRRKNEKRANRLLNNAFEELVAFQRALKDFVASIDATYAKQYEEFYIGLEGSFGSKHVSPRTLTSCFLSCVVCVEGIVTKCSLVRPKVVRSVHYCPATKKTIERRYSDLTTLVAFPSSSVYPTKDEENNPLETEYGLSVYKDHQTITIQEMPEKAPAGQLPRSVDVILDDDLVDKVKPGDRIQVVGTYRCLPGKKGCYTSGTFRTVLIACNVKQMSKDIQPAFSADDIAKIKKFSKTRSKDVFEQLARSLAPSIHGHDYVKKAILCLLLGGVERELENGSHIRGDINILLIGDPSVAKSQLLRYVLCTAPRAIPTTGRGSSGVGLTAAVTTDQETGERRLEAGAMVLADRGVVCIDEFDKMSDMDRTAIHEVMEQGRVTIAKAGIHARLNARCSVLAAANPVYGRYDQYKTPMENIGLQDSLLSRFDLLFIMLDQMDPEQDREISDHVLRMHQYRAPGEQDGDALPLGSSVDILATDDPDFTQDDQQDTRIYEKHDSLLHGTKKKKEKMVSAAFMKKYIHVAKIIKPTLTQESAAYIAEEYSRLRSQDSMSSDTARTSPVTARTLETLIRLATAHAKARMSKTVDLQDAEEAVELVQYAYFKKVLEKEKKRKKASEDESDLEDEEEKSQEDTEQKRKRRKTHAKDGESYDPYDFSEAETQMPQVHTPKTDDSQEKTDDSQETQDSQKVELSEPRLKAFKAALLEVFQEAHEQSVGMLHLTESINRNREEPFSSEEIQACLSRMQDDNQVMVSEGIVFLI | binds |
| Mcm4, mouse (protein, UniProt P49717 1-862) MSSPASTPSRRSSRRGRVTPTQSLRSEESRSSPNRRRRGEDSSTGELLPMPTSPGADLQSPPAQNALFSSPPQMHSLAIPLDFDVSSPLTYGTPSSRVEGTPRSGVRGTPVRQRPDLGSARKGLQVDLQSDGAAAEDIVPSEQSLGQKLVIWGTDVNVATCKENFQRFLQCFTDPLAKEEENVGIDITQPLYMQQLGEINITGEPFLNVNCEHIKSFSKNLYRQLISYPQEVIPTFDMAVNEIFFDRYPDSILEHQIQVRPFNALKTKSMRNLNPEDIDQLITISGMVIRTSQLIPEMQEAFFQCQVCAHTTRVEIDRGRIAEPCSCVHCHTTHSMALIHNRSFFSDKQMIKLQESPEDMPAGQTPHTIVLFAHNDLVDKVQPGDRVNVTGIYRAVPIRVNPRVSNVKSVYKTHIDVIHYRKTDAKRLHGLDEEAEQKLFSEKRVKLLKELSRKPDIYERLASALAPSIYEHEDIKKGILLQLFGGTRKDFSHTGRGKFRAEINILLCGDPGTSKSQLLQYVYNLVPRGQYTSGKGSSAVGLTAYVMKDPETRQLVLQTGALVLSDNGICCIDEFDKMNESTRSVLHEVMEQQTLSIAKAGIICQLNARTSVLAAANPIESQWNPKKTTIENIQLPHTLLSRFDLIFLMLDPQDEAYDRRLAHHLVSLYYQSEEQVEEEFLDMAVLKDYIAYAHSTIMPRLSEEASQALIEAYVNMRKIGSSRGMVSAYPRQLESLIRLAEAHAKVRFSNKVEAIDVEEAKRLHREALKQSATDPRTGIVDISILTTGMSATSRKRKEELAEALRKLILSKGKTPALKYQQLFEDIRGQSDTAITKDMFEEALRALADDDFLTVTGKTVRLL | binds |
| cyclin B3, mouse (protein, UniProt Q810T2 1-1396) MPPPLLPKRSKLETEKAQSNKITPREEQQSEKIGKSNHAASSSSSSTQGAVKRRSVFEDVTNASHSQCVQSKEDNIELKSHVSKRTKKGVGEVTQKKIKSSKMGHVTSLSNMEKEFILDIPNKPKTLTTEEPSVFQKTLVLNEEPATKETCLMRKTLKSCAFHQETLLMEKPLTLLVETEDYNEFDTELMTSKKKDKPEDPTIIEEMTDLKKSVIRKVTLTSSPLWLKNKHVVQEEKPVIQEKSSFKRISLVSNVVTTKEKPPVKKPHFRKKKPTTEMKSLLQEPSLEEKYNTQEDASILKKPQVLQENTNNKDATLTEPVTFKGKHSANEATHTKKPSSSKNNPDPQGKGTNLRPLRVHPVTYENEPMSSKKSTTKKKDSHFHGPSVLPDKHSPQMEVSTVKKSLALPNPTTEEKMLHFPVATVLEKQHNMGEAPCLKKPSPLRKQQQLPKRRRFFSNSAVQETVIRKPLFFKMSTTEKDPPSQWPSALPKKHISPGELSKQKKQHVSPKHNMEEDSQCWLDSAFKKQLSREEPASTHTPLKLEMQQAITKETGFHLRNPLVLPTVTSEAKSLTKEPPSFREQNTSLLKRKSTTHTITLQQAQSEWQEMTDEDRNLFSIKPGSHRKEPIPEFLQNPLPPNENCLISQKLSHSMPFASQKTTSQERAHRKESVASNDDKNFFSQDLFSPFSSADEDTLKFHKSLDFQEQVDRKNDSHKKMFDSQDSVSEEESFLRKLFCKDRCSSTEELSQERTVALEQEFLLIKILNENTSSDVDEPLSHQSPHIQNHSDTTKEALEASEALEAPEALETLEALVASEDLEEPLNILEELSTENMVALMKMLVTEDESTKDSFSGNYTAAREAHAEKSLSLEETSINEAATLKESLSSQEKHRAELVTVLKELLVLMKNPSLKRVALAFQENPSNNVETLLREVLALVENSTADESTLQEKPSTKTDVTPKELLALEENSSNKKANPMDSLSFDHKPDTEMGEIARMVLTDEEYNIDTLYERVLALSQGLIAADQLSFTDLQNFEETKIVDEEEFFKSFLVFENKNSPNMSSNAFESRTDNSSAIMPSSKAFNPVENSNPYVSSSKSFKSTLGAKETEITIQDDSDSLERIEKEGQDPLLNTIYAKDVFNYLKEREEKFLVQKYMDGQMELTSDMRAILVDWLVEIQGSFQMTHETLYLAVKIMDLYLMKAQCKKNHLQLLGSTTYMIAAKFEESYPPSLSEFLFICEDMYEKSDMVSLESSILQTLNFDINIPTAYNFLRRYASCIHASMKTLTLSRFICEMTLQEYEYIEERPSKLAAASFILALYMRNLSNCVPTLEYFTGYKMAELHILVRKLNHLLNFRSHSILKNVFEKYSEETYFEVAKIPPLSKQDLENLLNCALFH | binds |
| p130, mouse (protein, UniProt Q64700 1-1135) MASGGNQSPPPPPAAAASSEEEEEDGDAADRAQPAGSPSHQIQQRFEELCSRLNMDEAARAEAWSSYRSMSESYTLEGNDLHWLACALYVACRKSVPTVSKGTAEGNYVSLTRILRCSEQSLIEFFNKMKKWEDMANLPPHFRERTERLERNFTVSAVIFKKYEPIFQDIFKYPQEEQPRQQRGRKQRRQPCTTSEIFHFCWVLFIYAKGNFPMISDDLVNSYHLLLCALDLVYGNALQCSNRKELVNPNFKGLSEDCHPKDSKASSDPPCVIEKLCSLHDGLVLEAKGIKEHFWKPYIRKLFEKKLLKGKEENLTGFLEPGNFGESFKAVNKAYEEYVLAAGNLDERVFLGEDAEEEVGTLSRCLSAASGTESAERTQMRDILQQHLDKSKALRVCTPLTGVRYVQENSPCVTPVSTAAHSLSRLHTMLSGLRNAPSEKLERILRSCSRDPTQAIADRLKEMYEIYSQHFQPDENFSNCAKEIANKHFRFAEMLYYKVLESVIEQEQKRLGDMDLSGVLEHDAFHRSLLACCLEVVAFSHKPPGNFPFIAEIFDVPHYHFYKVIEVFIRAEDGLCREVVKHLNQIEEQILDHLAWKTKSPLWDRIRDNENRVPTCEEVMPPQNLERTDEIYIAGSPLTPRRVGEVRADAGGLGRSITSPTTLYDRYSSPTVSTTRRRLFENDSPSEGSTSGRIPPQPLVNAVPVQNVPGETVSVTPVPGQTLVTMATATVTANNGQTVTIPVQGIANENGGITFFPVQVNVGGQAQAVAGSIQPLSAQALAGSLSSQQVTGTTLQVPGPVAIQQISPGGQQQNPGQPLTSSSIRPRKTSSLALFFRKVYYLAGVRLRDLCIKLDISDELRKKIWTCFEFSIIQCTELMMDRHLDQLLMCAIYVMAKVTKEDRSFQNIMRCYRTQPQARSQVYRSVLIKGKRRNSGSSESRSHQNSPTELNTDRASRDSSPVMRSNSTLPVPQPSSAPPTPTRLTGASSDVEEEERGDLIQFYNNIYRKQIQAFAMKYSQANAQTDTPPLSPYPFVRTGSPRRVQLSQSHPIYISPHNNEAMPSPREKIFYYFSNSPSKRLREINSMIRTGETPTKKRGILLDDGSESPAKRICPENHSALLRRLQDVANDRGSQ | binds |
| p57^Kip2, mouse (protein, UniProt P49919 1-348) MGMSDVYLRSRTAMERLASSDTFPVIARSSACRSLFGPVDHEELGRELRMRLAELNAEDQNRWDFNFQQDVPLRGPGRLQWMEVDSESVPAFYRETVQVGRCRLQLGPRPPPVAVAVIPRSGPPAGEAPDGLEEAPEQPPSAPASAVVAEPTPPATPAPASDLTSDPIPEVTLVATSDPTPDPIPDANPDVATRDGEEQVPEQVSEQGEESGAEPGDELGTEPVSEQGEEQGAEPVEEKDEEPEEEQGAEPVEEQGAEPVEEQNGEPVEEQDENQEQRGQELKDQPLSGIPGRPAPGTAAANANDFFAKRKRTAQENKASNDVPPGCPSPNVAPGVGAVEQTPRKRLR | binds |
| Cdc7, mouse (enzyme, UniProt Q9Z0H0 1-564) MEEPMAFSSLRGSDRCPADDSLKKYEQSVKLSGIKRDIEELCEAVPQLVNVFKIKDKIGEGTFSSVYLATAQLQEGHEEKIALKHLIPTSHPMRIAAELQCLTVAGGQDNVMGLKYCFRKNDHVVIAMPYLEHESFLDILNSLSFQEVREYMYNLFVALKRIHQFGIVHRDVKPSNFLYNRRLKKYALVDFGLAQGTRDTKIELLKFVQSEAQQEDCSRNKYHGVVGHKGLLSRPAPKTVDQQCTPKTSVKRSYTQVHIKQGKDGKERSVGLSVQRSVFGERNFNIHSSISHESPAEKLIKQSKTVDIISRKLATKKTAISTKAMNSVMRETARSCPAVLTCDCYGSDRVCSVCLSRRQQVAPRAGTPGFRAPEVLTKCPDQTTAIDMWSAGVIFLSLLSGRYPFYKASDDLTALAQIMTIRGSRETIQAAKAFGKSVLCSKEVPAQDLRALCERLRGLDSTTPRSASGPPGNASYDPAASKNTDHKASRVQAAQAQHSEDSLYKRDNDGYWSHPKDCTSNSEGWDSVPDEAYDLLDKLLDLNPASRITAEAALLHAFFKDMCS | binds |
| Dbf4, mouse (protein, UniProt Q9QZ41 1-663) MNLETMRIHSKAPLPGGIQDRNEKNRPSLKSLKADNRLEKSKYKPLWGKIFYLDLPSITICEKLQKDIKELGGRVEEFLSKDISYFVSNKKEAKYAQTLGRVSPVPSPESAYTAETTSPHPSHDGSSFKSQDRVCLSRGKLLAEKAVKDHDFIPANSILSNALSWGVKILHIDDIRYYIEQKKKALSALKKSSASGKDAGKKAGPGIQKTRTGRLKKPFLKVEDVNRCYRPFYLQLPSLPCINYFLQKPCSPFDIEKSSSVQKQAQPKLRINMDGDKCGTPVQLQLKEKRKKGYCECCLQKYEDLETHLLSEKHRNFAQSNQYQVVDDIVSQLVFDFVEYGRDTPQKKRIRYSVGSLSSVSANVLKNTAPKEKPLLEPNFQKDVGESSGHLLKPNSQYEETQKPEEKHGFASEPTTYSSAGLKGCDRKPVSMFNASEPDPEQEYAQLPLRDSTPEHQVTEGRNDGEQRVDPAPGVSQSCGQVSHLSTESNLPQPQLAADITQLSAKDLQEKGFHVVIGHASDLVALNTSKEQLTMKARTPPCSPQEPHECDTENMENLPCGKIQRKVRMLLGQQKANAEPSAELDKKRTEYLPAHEDRTCGSPVQSLLDLFQTSEEKSEFLGFTGYTENSGICDVLDIWEEENSSTLLSTFFSSPSTSAFVGF | no binding |

No constants are given. Whether binding was seen depends on the method and setting. In cells and extracts the contact can be indirect. Here binding means that the protein was enriched with, or labelled near, the bait; the list need not be complete. No binding means not detected with the bait.
